The list does not hold the whole screen: it is rich in T/C values a quarter to a half above the control, in often repeated tests (any T/C) and in doses without a T/C. Other doses and runs of a compound stand elsewhere. T/C is the treated group as % of the vehicle group. Some entries give survivors of the animals treated and no T/C: the source holds a T/C of zero for them, seemingly a mark for toxic or unscored doses. Some survivor counts are full or nearly so, which does not show that the dose was tolerated: survival well below the control is almost never listed, so the zero probably covers shortened survival too. Counts of survivors are from the toxicity check (mostly the fifth day) where no day follows; animals may have died later. Schedules are NCI's codes, taken here to give the interval after Q, in days (D) or hours (H), and the number of doses after X. Some entries hold several experiments; the results are listed from low to high. For survival time, this PubChem deposit counts one and a half times the control or more as active, and values a quarter to a half above the control carry no call in these data; other NCI protocols may use other cut-offs.
Tested on: BDF1 mice, B16 melanoma ip, median survival T/C
Experiment: NCI In Vivo Anticancer Drug Screen. Data for tumor model B16 Melanoma (intraperitoneal) in B6D2F1 (BDF1) mice
Details: T/C endpoint: median survival time, higher T/C = longer survival
In short: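 Values are ratios of treated (T) to vehicle-control (C) measurements of survival or tumor size in tumor-bearing mice.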

[1] = dose: 400.0 mg/kg/injection, schedule: Q01DX009 (ip), vehicle: saline with Tween-80
[2] = dose: 100.0 mg/kg/injection, schedule: Q01DX009 (ip), vehicle: saline
[3] = dose: 25.0 mg/kg/injection, schedule: Q01DX009 (ip), vehicle: Klucel (hydroxypropylcellulose) (HPC)
[4] = dose: 25.0 mg/kg/injection, schedule: Q01DX009 (ip), vehicle: saline with Tween-80
[5] = dose: 50.0 mg/kg/injection, schedule: Q01DX009 (ip), vehicle: Klucel (hydroxypropylcellulose) (HPC)
[6] = dose: 50.0 mg/kg/injection, schedule: Q01DX009 (ip), vehicle: saline with Tween-80
[7] = dose: 100.0 mg/kg/injection, schedule: Q01DX009 (ip), vehicle: Klucel (hydroxypropylcellulose) (HPC)
[8] = dose: 100.0 mg/kg/injection, schedule: Q01DX009 (ip), vehicle: saline with Tween-80
[9] = dose: 200.0 mg/kg/injection, schedule: Q01DX009 (ip), vehicle: Klucel (hydroxypropylcellulose) (HPC)
[10] = dose: 200.0 mg/kg/injection, schedule: Q01DX009 (ip), vehicle: saline with Tween-80
[11] = dose: 400.0 mg/kg/injection, schedule: Q01DX009 (ip), vehicle: Klucel (hydroxypropylcellulose) (HPC)
[12] = dose: 5.0 mg/kg/injection, schedule: Q01DX009 (ip), vehicle: saline with Tween-80
[13] = dose: 400.0 mg/kg/injection, schedule: Q01DX001 (ip), vehicle: water

Which T/C (dose: 0.5 mg/kg/injection, schedule: Q01DX009 (ip), vehicle: saline with Tween-80) does the source give for CC1=CC(=O)[C@@H](O)[C@]2(C)[C@H]3[C@@]4(O)OC[C@]35[C@H]([C@@H](C)[C@H]4O)[C@@H](OC(=O)c3ccccc3)C(=O)O[C@@H]5C[C@@H]12 here?
The T/C was 130 % of control.

And the T/C (dose: 1.0 mg/kg/injection, schedule: Q01DX009 (ip), vehicle: saline with Tween-80)?
The T/C was 139 % of control.

Which results are given for OCC1OC(n2cnc3c(=S)nc[nH]c32)C(O)C1O (stereo not given)?
survivor count (dose: 400.0 mg/kg/injection, schedule: Q01DX009 (ip), vehicle: saline sonified): 6 of 6; survivor count [1]: 6 of 6; survivor count (dose: 800.0 mg/kg/injection, schedule: Q01DX009 (ip), vehicle: saline sonified): 5 of 6

Which survivor count (dose: 200.0 mg/kg/injection, schedule: Q01DX009 (ip), vehicle: saline) does the source give for COc1cc(C(=O)OC(C)CN2CCN(C(=O)c3cc(OC)c(OC)c(OC)c3)CC2)cc(OC)c1OC (stereo not given) here?
The survivor count was 7 of 10.

For C=CCNc1nc2c(s1)CCc1cc(OC)c(OC)cc1-2, which survivor count [1] is on record?
Its survivor count is 7 of 10.

For CC(C)CC(N)C(=O)OCc1ccccc1 (stereo not given), which survivor count [2] is on record?
Its survivor count is 10 of 10.

Which T/C [2] does the source give for c1ccc2cc3c(cc2c1)Cn1c-3nc2ccccc21 here?
The T/C was 129 % of control.

What about the survivor count (dose: 600.0 mg/kg/injection, schedule: Q01DX009 (ip), vehicle: saline with Tween-80) of the same compound?
Its survivor count is 10 of 10.

And the survivor count (dose: 900.0 mg/kg/injection, schedule: Q01DX009 (ip), vehicle: saline with Tween-80)?
The survivor count was 10 of 10.

Nc1nc(N)c2cc(CNc3ccc(C(=O)NC(CC(=O)O)CC(=O)O)cc3)ccc2n1 was tested. Which survivor count (dose: 1.56 mg/kg/injection, schedule: Q01DX009 (ip), vehicle: Klucel (hydroxypropylcellulose) (HPC)) did it give?
Its survivor count is 10 of 10.

And the survivor count [3]?
The survivor count was 10 of 10.

What about the survivor count [4] of the same compound?
Its survivor count is 10 of 10.

And the survivor count [5]?
The survivor count was 10 of 10.

And the survivor count [6]?
Its survivor count is 10 of 10.

What about the survivor count [7] of the same compound?
The survivor count was 10 of 10.

And the survivor count [8]?
The survivor count was 10 of 10.

What about the survivor count [9] of the same compound?
The survivor count was 10 of 10.

And the survivor count [10]?
Its survivor count is 10 of 10.

And the survivor count [11]?
The survivor count was 9 of 10 and 10 of 10.

For O=NN(CCBr)C(=O)Nc1ccccc1, which T/C (dose: 11.0 mg/kg/injection, schedule: Q01DX009 (ip), vehicle: saline with Tween-80) is on record?
The T/C was 133 % of control.

And the T/C (dose: 16.5 mg/kg/injection, schedule: Q01DX009 (ip), vehicle: saline with Tween-80)?
Its T/C is 149 % of control.

What about the T/C [4] of the same compound?
Its T/C is 133 % of control.

How did the survivor count [11] turn out when CCC(C(N)=O)C1=CCCCC1 (stereo not given) was run?
Its survivor count is 10 of 10.

Which survivor count (dose: 12.5 mg/kg/injection, schedule: Q01DX009 (ip), vehicle: Klucel (hydroxypropylcellulose) (HPC)) does the source give for CCCCCCCCCCCCCCCC(=O)N(CCCN(CC)CC)C(C)CCCN(CC)CC (stereo not given) here?
Its survivor count is 9 of 10.

And the survivor count (dose: 12.5 mg/kg/injection, schedule: Q01DX009 (ip), vehicle: water)?
The survivor count was 10 of 10.

And the survivor count [3]?
Its survivor count is 1 of 10.

For S=C([S][Sn]([c]1ccccc1)([c]1ccccc1)[c]1ccccc1)N1CCOCC1, which survivor count (dose: 12.5 mg/kg/injection, schedule: Q01DX009 (ip), vehicle: saline with Tween-80) is on record?
The survivor count was 10 of 10.

What about the survivor count [4] of the same compound?
Its survivor count is 8 of 10.

And the survivor count [6]?
Its survivor count is 0 of 10.

What about the survivor count [8] of the same compound?
The survivor count was 0 of 10.

What about the survivor count [10] of the same compound?
The survivor count was 0 of 10.

How did the survivor count (dose: 320.0 mg/kg/injection, schedule: Q01DX009 (ip), vehicle: saline with Tween-80) turn out when Cc1c(O)ccc(=O)n1O was run?
Its survivor count is 8 of 10 and 10 of 10.

How did the survivor count [11] turn out when NC(=O)C(N)=O was run?
The survivor count was 10 of 10.

Which results are given for CC1(C)N=C(N)N=C(N)N1c1ccc(F)c(C(F)(F)F)c1?
survivor count (dose: 12.5 mg/kg/injection, schedule: Q01DX009 (ip), vehicle: saline): 9 of 10; T/C (dose: 24.0 mg/kg/injection, schedule: Q01DX009 (ip), vehicle: saline): 128 % of control; survivor count (dose: 25.0 mg/kg/injection, schedule: Q01DX009 (ip), vehicle: saline): 6 of 10; T/C (dose: 48.0 mg/kg/injection, schedule: Q01DX009 (ip), vehicle: saline): 127 % of control; survivor count (dose: 50.0 mg/kg/injection, schedule: Q01DX009 (ip), vehicle: saline): 10 of 10; survivor count (dose: 96.0 mg/kg/injection, schedule: Q01DX009 (ip), vehicle: saline): 3 of 10; survivor count [2]: 2 of 10

Which results are given for O=c1oc(-c2ccc(Cl)cc2)nc2cc(Cl)ccc12?
survivor count [5]: 3 of 10; survivor count [7]: 0 of 10

What does the source list for CS(=O)(=O)c1cc([N+](=O)[O-])cc([N+](=O)[O-])c1Cl?
survivor count [12]: 6 of 6; survivor count (dose: 10.0 mg/kg/injection, schedule: Q01DX009 (ip), vehicle: saline with Tween-80): 6 of 6

For CCC/C=C(/CC(=O)O)C(=O)O, which survivor count (dose: 150.0 mg/kg/injection, schedule: Q04DX003 (ip), vehicle: saline with Tween-80) is on record?
The survivor count was 10 of 10.

What about the survivor count (dose: 300.0 mg/kg/injection, schedule: Q04DX003 (ip), vehicle: saline with Tween-80) of the same compound?
Its survivor count is 10 of 10.

How did the survivor count [9] turn out when CNc1nc(NC)nc(NC)n1 was run?
Its survivor count is 9 of 10.

And the survivor count [11]?
The survivor count was 0 of 10.

How did the survivor count [1] turn out when CC(C)(C)OC(=O)NCCCCC(NC(=O)OCc1ccccc1)C(=O)ON1C(=O)CCC1=O (stereo not given) was run?
The survivor count was 10 of 10.

Which survivor count [4] does the source give for CSc1nc(Cl)c(Br)c(Cl)n1 here?
The survivor count was 10 of 10.

What about the survivor count [6] of the same compound?
Its survivor count is 8 of 10.

What about the survivor count [8] of the same compound?
The survivor count was 3 of 10.

And the survivor count [10]?
The survivor count was 0 of 10.

Which survivor count (dose: 0.12 mg/kg/injection, schedule: Q01DX009 (ip), vehicle: saline) does the source give for CN(C)CCCN1c2ccccc2Sc2ccc(C(F)(F)F)cc21 here?
The survivor count was 10 of 10.

And the survivor count (dose: 1.0 mg/kg/injection, schedule: Q01DX009 (ip), vehicle: saline)?
The survivor count was 10 of 10.

And the survivor count (dose: 4.0 mg/kg/injection, schedule: Q01DX009 (ip), vehicle: saline)?
The survivor count was 9 of 10.

What about the survivor count (dose: 16.0 mg/kg/injection, schedule: Q01DX009 (ip), vehicle: saline) of the same compound?
Its survivor count is 6 of 10.

What about the survivor count (dose: 32.0 mg/kg/injection, schedule: Q01DX009 (ip), vehicle: saline) of the same compound?
The survivor count was 0 of 10.

With COc1ccc(NC(=O)Nc2cc(C(F)(F)F)ccc2Cl)cc1 as the compound, how does the survivor count [8] read?
Its survivor count is 10 of 10.

And the survivor count [10]?
The survivor count was 10 of 10.

What about the survivor count [1] of the same compound?
Its survivor count is 10 of 10.

How did the survivor count [8] turn out when Cc1ccc(NC(=O)Nc2cccc(Cl)c2C)cc1NC(=O)Nc1cccc(Cl)c1C was run?
Its survivor count is 10 of 10.

What about the survivor count [10] of the same compound?
Its survivor count is 10 of 10.

What about the survivor count [1] of the same compound?
Its survivor count is 10 of 10.

O=C1C=C(Nc2ccccc2)c2ccccc2C1=O was tested. Which survivor count [7] did it give?
Its survivor count is 8 of 10.

And the survivor count [9]?
Its survivor count is 7 of 10 and 10 of 10.

What about the survivor count [11] of the same compound?
Its survivor count is 9 of 10.

Which results are given for Nc1nc(SCc2ccccc2)c2[nH]cnc2n1?
survivor count [4]: 6 of 6; survivor count [6]: 5 of 6; survivor count [8]: 6 of 6; survivor count [10]: 6 of 6

With O=[N+]([O-])c1cc(Br)cc2c1nc(Cl)c1ccccc12 as the compound, how does the survivor count [10] read?
Its survivor count is 5 of 6.

What about the survivor count [1] of the same compound?
Its survivor count is 6 of 6.

How did the survivor count [12] turn out when CC12CCC(O)CC1CCC1C2CCC2(C)C(c3ccc(=O)oc3)CCC12O (stereo not given) was run?
Its survivor count is 0 of 10.

With NC(=S)N/N=C1/c2cc(Cl)ccc2-c2c(NC(=O)C(Cl)Cl)cc(Cl)cc21 as the compound, how does the survivor count (dose: 800.0 mg/kg/injection, schedule: Q01DX009 (ip), vehicle: saline with Tween-80) read?
The survivor count was 0 of 6.

Which results are given for CCCCNC(C)C1(O)Cc2c(O)c3c(c(O)c2C(OC2CC(N)C(O)C(C)O2)C1)C(=O)c1c(OC)cccc1C3=O (stereo not given)?
T/C (dose: 25.0 mg/kg/injection, schedule: Q01DX001 (ip), vehicle: water): 147 % of control; T/C [13]: 133 % of control; survivor count [13]: 6 of 10

With CCCCNc1cc(Nc2ccc(Br)cc2)nc(N)n1 as the compound, how does the survivor count [10] read?
Its survivor count is 9 of 10.

What does the source list for O=S1(=O)C=CCCC=C1?
survivor count [7]: 0 of 10; survivor count [9]: 0 of 10

How did the survivor count (dose: 720.0 mg/kg/injection, schedule: Q04DX003 (ip), vehicle: water) turn out when Cc1ccc2c(c1)P(=O)(O)c1cc(Cl)ccc1O2 was run?
Its survivor count is 6 of 8.

And the survivor count (dose: 1200.0 mg/kg/injection, schedule: Q04DX003 (ip), vehicle: water)?
The survivor count was 3 of 8.
